According to PubChem BioAssay AID1688 (National Center for Advancing Translational Sciences (NCATS), 2009):
In all, about 220,000 compounds went through this assay and about 2,400 (1.1%) were called active. This list was built around the results that the source calls inconclusive (neither active nor inactive); the mix of calls is not that of the screen. Calls come from the whole dose curve; as a rule, active = well fitted inhibition curve with a large enough effect; inconclusive = small, poorly fitted or top-dose-only effect, or effect the other way; inactive = no such curve, though single readings can be large or run the other way. Potencies of inconclusive entries are doubtful fits and often do not repeat.

Test: qHTS Multiplex Assay to Identify Dual Action Probes in a Cell Model of Huntington: Aggregate Formation (GFP); note: nearly all actives have a fitted effect of over 60% in size
Details: PC12 HttQ103-GFP aggregates, Acumen cytometry, 40 h; activity change, negative = inhibition: at 46.1 µM (top of the series) unless noted
Summary of the method: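 Huntingtin Q103 exon 1–GFP aggregates in induced PC12 cells (100 nM tebufenozide) were quantified by cytometry from lysates, with compounds dosed in titration.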
% is set by controls: 0 for no effect and ±100 for the full control effect; potency is the fitted concentration of half-maximal effect.

SMILES	activity change, negative = inhibition	Potency
Cc1ccc(C(=O)/C=C/NCc2ccc(F)cc2)cc1	inactive: 14.1%	–
O=c1c(C/C=C/c2ccccc2)c(O)ccn1Cc1ccc(Cl)cc1Cl	–	inconclusive: 12.6 µM [inhibitor, single point]
CC1(C)Cc2c(c(N3CCCC3)[nH]c(=S)c2C#N)CO1	inactive: 20.2%	–
O=c1c(-c2nnc(SCc3ccc(Cl)c(Cl)c3)o2)cccn1Cc1ccccc1	–	inconclusive: 14.1 µM [inhibitor, partial curve]
O=C(/C=C/c1ccoc1)c1ccccc1O	inactive: 1.21%	–
COc1ccccc1N(C)S(=O)(=O)c1ccc(C(=O)NC2=NCCS2)cc1	inactive: -6.77%	–
O=[N+]([O-])c1cccc(N2Cc3ccccc3C2)c1	inactive: 2.38%	–
CCn1c(=O)c(=O)[nH]c2cc(C(=O)NC3CCCc4ccccc43)ccc21 (centres undefined)	–	inconclusive: 5.62 µM [activator, single point]
NC(=O)c1c(NC(=O)c2cccs2)sc2c1CCCCCC2	–	inconclusive: 3.98 µM [inhibitor, full curve, poor fit]
Clc1cccc(OCCN2CCNCC2)c1	inactive: -9.4%	–
O=C(C[n+]1cc2ccccc2c2ccccc21)c1ccccc1	–	inconclusive: 35.5 µM [inhibitor, single point]
CCC(C)c1ccc(O)c(NC(=O)c2ncn[nH]2)c1 (centres undefined)	–	inconclusive: 15.8 µM [activator, single point]
CCOc1cc(CNCCO)cc(Br)c1OCc1ccc(Cl)cc1Cl	–	inconclusive: 35.5 µM [inhibitor, single point]
CSc1sc(C(=O)NCC2CC2)c2c1S(=O)(=O)N(C)c1ccccc1-2	inactive: 0.943% [at 9.22 µM]	–
CC(C)(C)CC(C)(C)NC(=S)Nc1ccc(S(=O)(=O)N2CCOCC2)cc1	–	inconclusive: 22.4 µM [inhibitor, single point]
C=CCn1c(O)c(N=NC(=S)Nc2ccccc2F)c2cc(S(=O)(=O)N3CCOCC3)ccc21	–	inconclusive: 10 µM [inhibitor, partial curve]
Cc1cccn2c(NCc3ccc4c(c3)OCO4)c(-c3ccc(O)cc3)nc12	–	inconclusive: 12.6 µM [activator, partial curve]
Cc1ccc2c(c1)c1ncnc(N3CCOCC3)c1n2C	inactive: -9.35%	–
CCOc1cc(/C=N/N=C(N)N)ccc1OCc1ccc(Cl)cc1	–	inconclusive: 15.8 µM [inhibitor, single point]
O=C(CSc1nc2ccccc2c(=O)n1-c1ccc(F)cc1)Nc1ccc(N2CCOCC2)cc1	–	inconclusive: 2.82 µM [inhibitor, single point]
COc1c(C)cc(Br)cc1C(=O)Nc1cccc(-c2nc3ncccc3o2)c1	–	inconclusive: 10 µM [inhibitor, partial curve, poor fit]
CC(C)(C)n1nnnc1C(c1cccs1)N(Cc1ccccc1)Cc1ccco1 (centres undefined)	–	inconclusive: 35.5 µM [inhibitor, single point]
Cc1c(NC(=O)COC(=O)CCC(=O)c2ccc(Cl)cc2)c(=O)n(-c2ccccc2)n1C	–	inconclusive: 14.1 µM [activator, single point]

Entries above containing nitrogen in an aromatic ring, in the order listed:
SMILES	activity change, negative = inhibition	Potency
O=c1c(C/C=C/c2ccccc2)c(O)ccn1Cc1ccc(Cl)cc1Cl	–	inconclusive: 12.6 µM [inhibitor, single point]
CC1(C)Cc2c(c(N3CCCC3)[nH]c(=S)c2C#N)CO1	inactive: 20.2%	–
O=c1c(-c2nnc(SCc3ccc(Cl)c(Cl)c3)o2)cccn1Cc1ccccc1	–	inconclusive: 14.1 µM [inhibitor, partial curve]
CCn1c(=O)c(=O)[nH]c2cc(C(=O)NC3CCCc4ccccc43)ccc21 (centres undefined)	–	inconclusive: 5.62 µM [activator, single point]
O=C(C[n+]1cc2ccccc2c2ccccc21)c1ccccc1	–	inconclusive: 35.5 µM [inhibitor, single point]
CCC(C)c1ccc(O)c(NC(=O)c2ncn[nH]2)c1 (centres undefined)	–	inconclusive: 15.8 µM [activator, single point]
C=CCn1c(O)c(N=NC(=S)Nc2ccccc2F)c2cc(S(=O)(=O)N3CCOCC3)ccc21	–	inconclusive: 10 µM [inhibitor, partial curve]
Cc1cccn2c(NCc3ccc4c(c3)OCO4)c(-c3ccc(O)cc3)nc12	–	inconclusive: 12.6 µM [activator, partial curve]
Cc1ccc2c(c1)c1ncnc(N3CCOCC3)c1n2C	inactive: -9.35%	–
O=C(CSc1nc2ccccc2c(=O)n1-c1ccc(F)cc1)Nc1ccc(N2CCOCC2)cc1	–	inconclusive: 2.82 µM [inhibitor, single point]
COc1c(C)cc(Br)cc1C(=O)Nc1cccc(-c2nc3ncccc3o2)c1	–	inconclusive: 10 µM [inhibitor, partial curve, poor fit]
CC(C)(C)n1nnnc1C(c1cccs1)N(Cc1ccccc1)Cc1ccco1 (centres undefined)	–	inconclusive: 35.5 µM [inhibitor, single point]
Cc1c(NC(=O)COC(=O)CCC(=O)c2ccc(Cl)cc2)c(=O)n(-c2ccccc2)n1C	–	inconclusive: 14.1 µM [activator, single point]

More entries.

SMILES	activity change, negative = inhibition	Potency
Cc1cccc(C)c1OCc1nnc(SCC(=O)Nc2ccccc2F)o1	–	inconclusive: 0.562 µM [activator, full curve, poor fit]
COc1ccc(S(=O)(=O)N2CCC(C(=O)N3CCc4ccccc4C3)CC2)cc1Cl	–	inconclusive: 14.1 µM [inhibitor, single point]
CC(=O)c1cccc(NC(=S)NCCC2=CCCCC2)c1	–	inconclusive: 14.1 µM [inhibitor, single point]
Cc1ccccc1NC(=O)CCN1CCc2ccccc2C1	inactive: -1.9% [at 9.22 µM]	–
O=C(CCc1nnc(-c2ccc(-c3ccccc3)cc2)o1)N1CCCCC1	inactive: 11.6% [at 9.22 µM]	–
COc1ccc(-c2c(C)n([O-])c(C)c(-c3ccccc3)[n+]2=O)cc1OC	inactive: 8.51%	–
Cc1ccc(C)c(NC(=S)N=Nc2c(O)n(C)c3ccc(S(=O)(=O)N4CCOCC4)cc23)c1	–	inconclusive: 5.62 µM [inhibitor, single point]
Cc1ccc(C)c(N2CCN(C(=O)C3CCN(c4nnc(N5CCCC5=O)s4)CC3)CC2)c1	–	inconclusive: 22.4 µM [inhibitor, single point]
O=C(NCc1ccc(F)cc1)c1cnn2ccccc12	–	inconclusive: 12.6 µM [inhibitor, single point]
CCOC(=O)N1CCN(c2c(NCc3ccc(F)cc3)c(=O)c2=O)CC1	inactive: -19.5% [at 9.22 µM]	–
Cc1cc(C)nc(SCC(=O)Nc2ccnc3ccccc23)n1	–	inconclusive: 15.8 µM [inhibitor, single point]
O=C(CSc1nc2c([nH]c3ccccc32)c(=O)n1-c1ccccc1)N1CCOCC1	inactive: -18.9%	–
COc1ccc2[nH]c(C)c(CCN(Cc3cccs3)C(=S)Nc3cccc(F)c3)c2c1	–	inconclusive: 35.5 µM [inhibitor, single point]
COc1cc2c(C#N)c(N3CCOCC3)nc(N)c2c(N)n1	–	inconclusive: 7.08 µM [inhibitor, full curve, poor fit]
C=C(C)C(=O)Nc1cccc(C2=NOC3(C2)C[C@@H](C(N)=O)N(C(=O)CC(c2ccccc2)c2ccccc2)C3)c1 (some centres undefined)	–	inconclusive: 0.0006 µM [inhibitor]
NNC(=O)c1sc2nc(N3CCOCC3)c3c(c2c1N)CCCC3	inactive: 3.54% [at 9.22 µM]	–
CC(=O)N1CCCc2cc(S(=O)(=O)NCc3ccc(C)cc3)ccc21	–	inconclusive: 10 µM [inhibitor, single point]
Cc1ccc(NC(=O)c2c(-c3c(F)cccc3Cl)noc2C)cc1F	–	inconclusive: 25.1 µM [inhibitor, single point]
O=C(CSc1nc2ccccc2n1CCc1ccccc1)c1ccc(O)c(O)c1	–	inconclusive: 10 µM [activator, partial curve]
CCN(CCNC(=O)c1ccc(CSc2nc3ccncc3[nH]2)cc1)c1ccccc1	–	inconclusive: 17.8 µM [inhibitor, single point]
CCc1ccc(N2C(=O)Nc3ccccc3C2(O)C(=O)N2CCN(c3ccccn3)CC2)cc1 (centres undefined)	–	inconclusive: 1.26 µM [inhibitor, single point]
Brc1ccccc1-c1nnc2sc(-c3ccc4c(c3)OCCO4)nn12	–	active: 25.1 µM
Cc1ccc(C)c(N2CCN(C(=O)CC3Sc4ccccc4NC3=O)CC2)c1 (centres undefined)	–	inconclusive: 31.6 µM [inhibitor, single point]

SMILES	activity change, negative = inhibition	Potency
Cc1cccc(Cn2c(N(C)Cc3ccccc3)nc3c2c(=O)[nH]c(=O)n3C)c1	–	inconclusive: 14.1 µM [activator, single point]
Cn1c(=O)c(NC2CCCCC2)c2c3c(cccc31)C(=O)c1ccccc1-2	–	inconclusive: 0.891 µM [inhibitor, single point]
CCN1CCN(Cc2ccc(NC(=O)c3ccc(C)c(NC(=O)c4nccnc4N)c3)cc2C(F)(F)F)CC1	–	active: 2.82 µM
Oc1c(Br)cc(Br)c2cccnc12	–	inconclusive: 7.94 µM [inhibitor, partial curve, poor fit]
CN(CC(=O)Nc1ccccc1Br)Cc1nc2ccccc2c(=O)[nH]1	inactive: -9.26%	–
Oc1c(C(Nc2nc3ccccc3s2)c2ccco2)ccc2cccnc12 (centres undefined)	–	inconclusive: 4.47 µM [inhibitor, partial curve]
O=C(Nc1ccccc1-c1nc2ccccc2[nH]1)c1ccc(S(=O)(=O)N2CCCCC2)cc1	inactive: -6.26%	–
O=C(c1cc(COc2ccc(F)cc2Cl)on1)N1CCCC(OCc2cccnc2)C1 (centres undefined)	–	inconclusive: 28.2 µM [inhibitor, partial curve]
O=[N+]([O-])c1nn(-c2ccc3c(c2)OCCO3)n(O)c1=Nc1ccc(Cl)cc1	–	inconclusive: 35.5 µM [inhibitor, single point]
S=c1[nH]nc(CSc2nc3ccccc3s2)n1C1CCCCC1	–	inconclusive: 35.5 µM [inhibitor, single point]
Cc1cccc(N2C(=O)CC(N3CCOCC3)C2=O)c1 (centres undefined)	inactive: 4.22%	–
COc1ccc2nc(C)cc(SCC(=O)N/N=C/c3ccc(O)cc3O)c2c1	–	inconclusive: 1.78 µM [inhibitor, partial curve]
CC(C)N(Cc1nc(-c2ccccc2)no1)S(=O)(=O)c1ccccc1	–	inconclusive: 22.4 µM [inhibitor, single point]
Cc1ccc(S(=O)(=O)N2CCN(Cc3cccc(C)c3O)CC2)cc1	–	inconclusive: 5.62 µM [inhibitor, single point]
O=c1c2cn[nH]c2nc(SCc2ccccc2F)n1-c1ccc(Br)cc1	–	active: 12.6 µM
CC(OC(=O)c1oc2ccccc2c1CSC1CCCCC1)C(=O)NC(N)=O (centres undefined)	–	inconclusive: 5.62 µM [inhibitor, single point]
Cc1onc(-c2ccccc2)c1C(=O)NC(=S)Nc1sc2c(c1C#N)CCC(C)C2 (centres undefined)	inactive: 14.7%	–
Cc1cc(C)c(S(=O)(=O)N(C)CC(N)=O)c(C)c1	inactive: -19.8%	–
CN1/C(=C\C(=S)Nc2ccccc2)C(C)(C)c2ccccc21	–	inconclusive: 10 µM [inhibitor, partial curve]
CCOc1cc(/C=N/O)cc(Br)c1OCC	–	inconclusive: 12.6 µM [inhibitor, partial curve]
CC(=O)c1ccc(NS(=O)(=O)Cc2ccc(Cl)cc2)cc1	inactive: 5.52%	–
CCSc1nc2ccccc2[nH]1	–	inactive
C=CCSC(=C(C#N)C#N)c1cc2c([nH]1)CCCC2	–	inconclusive: 3.55 µM [activator, partial curve]
